This is an account of results in PMC10881513.

Results are given in words; binding and its absence hold for the method and conditions named. Binding seen in cells or lysates may run through a third protein. A yes stands for co-enrichment or nearness to the bait. Other partners may have been found.

The target of the assay is ASFV RNA polymerase subunit vRPB2 with N-terminal TEV-cleavable His-ZZ-tag (African swine fever virus, strain BA71V) (UniProt P42487). In words: affinity purification with mass spectrometry + SEC.

In the case of “ASFV RNA polymerase subunit vRPB1 (from UniProt P42486 1-1450)”, the binding result is “binds”. The entry for “ASFV RNA polymerase subunit vRPB10 (from UniProt P42488 1-80)” is “binds”.
